Results on 1 molecule are retold here after patent US9150581B2, “Nicotinic receptor compounds” (priority 2011, dated 2015).

Experiment [1] deals with mice. Briefly: Antagonism of nicotine antinociception, tail-flick. It counts as in vivo, mouse. The note with it: mice pretreated sc 10 min before nicotine 2.5 mg/kg sc.
In experiment [2] the test system is mice. Briefly: Antagonism of nicotine antinociception, hot-plate. It counts as in vivo, mouse. The note with it: mice pretreated sc 10 min before nicotine 2.5 mg/kg sc.

Values joined by “and” are separate entries in the source; they are usually repeats but may differ in a detail not shown here. Equal values may be shown once. The match of structure and compound is tentative.

Consider `Fc1ncc(C2CC3CCC2N3)cc1-c1ccccc1` (centres unmarked), for which the “AD50 Tail-Flick” value in experiment [1] is 0.5 mg/kg and 1 mg/kg. The “AD50 Hot-Plate” value in experiment [2] was 1.2 mg/kg and 2.4 mg/kg.
